PubChem BioAssay AID1224830, NIAID, 2016
Aim: 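Genes whose knock-down alters the TNF-alpha reporter response to LPS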 (primary screen). Cells: human THP-1 monocytic leukaemia cells, TNF dual-luciferase reporter clone, PMA-differentiated to macrophage-like cells. Reagents: siRNA pool against human genes, 50 nM. Time to read-out: LPS for 4 h, given about 3 days after siRNA transfection. Conditions: bacterial LPS (TLR4 ligand), 10 ng/ml. Read-out: 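Ratio of firefly to renilla light, scaled to the plate median and expressed as a robust z-score per replicate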. Scale: TNF reporter robust z-score: higher = stronger TNF reporter response to LPS. Active means: 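Each well counts as active if its z-score is over 2.8 or under -1.5; controls are left without a call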.
Here is a random part of about 18,000 deposited reagents. About 2,900 of them (16%) were called active. 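Calls are made per well; low scores hint the gene aids the LPS response, high scores that it dampens it.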 Unmarked entries are inactive. Repeated entries: four replicate wells of each siRNA pool.

LIM2 (lens intrinsic membrane protein 2) [SID315449768] | TNF reporter robust z-score = -1.66 (active)
LIM2 (lens intrinsic membrane protein 2) [SID315449768] | TNF reporter robust z-score = 0.87
LIM2 (lens intrinsic membrane protein 2) [SID315449768] | TNF reporter robust z-score = -0.79
LIM2 (lens intrinsic membrane protein 2) [SID315449768] | TNF reporter robust z-score = -0.33
LRFN2 [SID315458419] | TNF reporter robust z-score = 0.03
LRFN2 [SID315458419] | TNF reporter robust z-score = -0.85
LRFN2 [SID315458419] | TNF reporter robust z-score = 1.57
LRFN2 [SID315458419] | TNF reporter robust z-score = 1.91
CD7 (CD7 molecule) [SID315447765] | TNF reporter robust z-score = -0.34
CD7 (CD7 molecule) [SID315447765] | TNF reporter robust z-score = -0.15
CD7 (CD7 molecule) [SID315447765] | TNF reporter robust z-score = -0.25
CD7 (CD7 molecule) [SID315447765] | TNF reporter robust z-score = 0.47
NPFF (neuropeptide FF-amide peptide precursor) [SID315452691] | TNF reporter robust z-score = -0.89
NPFF (neuropeptide FF-amide peptide precursor) [SID315452691] | TNF reporter robust z-score = -0.62
NPFF (neuropeptide FF-amide peptide precursor) [SID315452691] | TNF reporter robust z-score = -0.64
NPFF (neuropeptide FF-amide peptide precursor) [SID315452691] | TNF reporter robust z-score = -0.37
HTR3D (5-hydroxytryptamine receptor 3D) [SID315463052] | TNF reporter robust z-score = -0.76
HTR3D (5-hydroxytryptamine receptor 3D) [SID315463052] | TNF reporter robust z-score = -0.03
HTR3D (5-hydroxytryptamine receptor 3D) [SID315463052] | TNF reporter robust z-score = 0.12
MRPL57 (mitochondrial ribosomal protein L57) [SID315459136] | TNF reporter robust z-score = -0.38
MRPL57 (mitochondrial ribosomal protein L57) [SID315459136] | TNF reporter robust z-score = -0.04
MRPL57 (mitochondrial ribosomal protein L57) [SID315459136] | TNF reporter robust z-score = 0.23
MRPL57 (mitochondrial ribosomal protein L57) [SID315459136] | TNF reporter robust z-score = 0.25
ATP1A2 (ATPase Na+/K+ transporting subunit alpha 2) [SID315447448] | TNF reporter robust z-score = 0.04
ATP1A2 (ATPase Na+/K+ transporting subunit alpha 2) [SID315447448] | TNF reporter robust z-score = 2.04
ATP1A2 (ATPase Na+/K+ transporting subunit alpha 2) [SID315447448] | TNF reporter robust z-score = 0.86
ATP1A2 (ATPase Na+/K+ transporting subunit alpha 2) [SID315447448] | TNF reporter robust z-score = 0.43
ASB9 (ankyrin repeat and SOCS box containing 9) [SID315462098] | TNF reporter robust z-score = 0.22
ASB9 (ankyrin repeat and SOCS box containing 9) [SID315462098] | TNF reporter robust z-score = 0.28
ASB9 (ankyrin repeat and SOCS box containing 9) [SID315462098] | TNF reporter robust z-score = 3.89 (active)
ASB9 (ankyrin repeat and SOCS box containing 9) [SID315462098] | TNF reporter robust z-score = 2.59
PDE8B (phosphodiesterase 8B) [SID315452693] | TNF reporter robust z-score = -0.29
PDE8B (phosphodiesterase 8B) [SID315452693] | TNF reporter robust z-score = 0.26
PDE8B (phosphodiesterase 8B) [SID315452693] | TNF reporter robust z-score = -0.34
PDE8B (phosphodiesterase 8B) [SID315452693] | TNF reporter robust z-score = 0.15
ZSCAN5A (zinc finger and SCAN domain containing 5A) [SID315459230] | TNF reporter robust z-score = -0.78
ZSCAN5A (zinc finger and SCAN domain containing 5A) [SID315459230] | TNF reporter robust z-score = 1.09
ZSCAN5A (zinc finger and SCAN domain containing 5A) [SID315459230] | TNF reporter robust z-score = 0.6
ZSCAN5A (zinc finger and SCAN domain containing 5A) [SID315459230] | TNF reporter robust z-score = 0.38
CX3CR1 (C-X3-C motif chemokine receptor 1) [SID315448188] | TNF reporter robust z-score = -0.7
CX3CR1 (C-X3-C motif chemokine receptor 1) [SID315448188] | TNF reporter robust z-score = -0.88
CX3CR1 (C-X3-C motif chemokine receptor 1) [SID315448188] | TNF reporter robust z-score = -0.86
CX3CR1 (C-X3-C motif chemokine receptor 1) [SID315448188] | TNF reporter robust z-score = -0.32
COX6A1 (cytochrome c oxidase subunit 6A1) [SID315448048] | TNF reporter robust z-score = 0.94
COX6A1 (cytochrome c oxidase subunit 6A1) [SID315448048] | TNF reporter robust z-score = 0.44
COX6A1 (cytochrome c oxidase subunit 6A1) [SID315448048] | TNF reporter robust z-score = 1.13
COX6A1 (cytochrome c oxidase subunit 6A1) [SID315448048] | TNF reporter robust z-score = 0.52
